Measurements as given in PubChem BioAssay AID1347075 (National Center for Advancing Translational Sciences (NCATS), 2019).
Out of some 400,000 compounds screened, about 5,500 (1.4%) were called active. This list was built around the results that the source calls inconclusive (neither active nor inactive); the mix of calls is not that of the screen. Calls follow the shape of the dose curve; as a rule, active = well fitted cell-killing curve with a large enough effect; inconclusive = small, poorly fitted or top-dose-only effect, or effect the other way; inactive = flat fitted curve, though single readings scatter. Potencies of inconclusive entries are doubtful fits and often do not repeat.

Assay: qHTS assay for MDR1-selective chemotherapeutics: Primary screen using the parental adenocarcinoma cell KB-3-1; also: nearly all actives have a fitted effect of over 60% in size
Conditions: KB-3-1 viability, CellTiter-Glo ATP luminescence, 72 h; activity change, negative = cytotoxic: at 46.1 µM (top of the series)
Outline: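 KB-3-1 cells, DMEM (no phenol red) + 10% FBS; compound by pin transfer, 72 h, 37 °C. Readout: CellTiter-Glo luminescence after 10 min. Data normalized, curve-fitted.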
% is scaled to controls: 0 for no effect and ±100 for the full control effect; potency is read from the fitted curve at half-maximal effect.

Q: Which Potency does the source give for `CCn1cnc2c1c(=O)n(Cc1cccc(Br)c1)c(=O)n2Cc1ccccc1` here?
A: The Potency was inconclusive: 29.1 µM [cytotoxic, single point].

Q: For `Cc1cccc(-n2c(SCc3cc(=O)n4ccsc4n3)nc3ccccc3c2=O)c1`, which Potency is on record?
A: The Potency was inconclusive: 29.1 µM [cytotoxic, single point].

Q: For `Cc1cc(Cl)c2ccc(Cl)cc2n1`, which Potency is on record?
A: The Potency was inconclusive: 8.2 µM [rising, single point].

Q: With `CCC(CC)C(=O)Nc1cccc(S(=O)(=O)c2cccc(NC(=O)C(CC)CC)c2)c1` as the compound, how does the “activity change, negative = cytotoxic” value read?
A: Its value is inactive: -4.69%.

Q: For `O=C(CSc1n[nH]c(-c2cccnc2)n1)Nc1ccc(Br)cc1`, which Potency is on record?
A: Its Potency is inconclusive: 18.4 µM [rising, single point].

Q: With `CC(C)n1cc(C(=O)c2cc(Br)ccc2O)cc(C#N)c1=O` as the compound, how does the Potency read?
A: Its Potency is inconclusive: 23.1 µM [cytotoxic, single point].

Q: For `COCc1nnc(NC(=O)c2ccc(S(=O)(=O)N(C)C3CCCCC3)cc2)o1`, which Potency is on record?
A: The Potency was inconclusive: 16.4 µM [cytotoxic, single point].

Q: Which Potency does the source give for `Cc1noc(C)c1S(=O)(=O)Nc1ccc2c(c1)C(=O)N([C@H](C)CO)C[C@H](C)[C@@H](CN(C)S(=O)(=O)c1ccccc1)O2` here?
A: The Potency was inconclusive: 0.0046 µM [rising, full curve, poor fit].

Q: With `COc1ccc2sc(-c3ccc(N(C)C)cc3)c(C#CCO)c2c1` as the compound, how does the Potency read?
A: The Potency was active: 16.4 µM.

Q: With `CC(C)C[C@@H]1Cc2[nH][nH]c(=O)c2[C@H](C)O1` as the compound, how does the Potency read?
A: Its Potency is inconclusive: 23.1 µM [cytotoxic, single point].

Q: With `O=C(Oc1ccc(-c2cnc3ccccc3n2)cc1)c1cccc([N+](=O)[O-])c1` as the compound, how does the Potency read?
A: The Potency was inconclusive: 29.1 µM [cytotoxic, single point].

Q: For `CCn1cc(CN2CCC(n3nccc3NC(=O)c3ccccc3C)CC2)cn1`, which “activity change, negative = cytotoxic” value is on record?
A: Its value is inactive: -0.149%.

Q: Which Potency does the source give for `COc1ccc(OCCN2CCN(C3CC(=O)N(CCC(C)C)C3=O)CC2)cc1` (centres undefined) here?
A: The Potency was inconclusive: 29.1 µM [cytotoxic, single point].

Q: For `CCc1nnc(NC(=O)c2ccc(S(=O)(=O)N3CCCC(C)C3)cc2)o1` (centres undefined), which Potency is on record?
A: Its Potency is inconclusive: 29.1 µM [cytotoxic, single point].

Q: With `O=C(Nc1ccccn1)c1ccc2c(c1)OCCO2` as the compound, how does the Potency read?
A: The Potency was inconclusive: 29.1 µM [cytotoxic, single point].

Q: For `O=C(CCl)NN1C(=O)NC(c2ccccc2)(c2ccccc2)C1=O`, which Potency is on record?
A: The Potency was inconclusive: 14.6 µM [cytotoxic, partial curve].

Q: Which Potency does the source give for `Cc1nnc(N2CCC(C(=O)N3CCCCCC3)CC2)c2nn(-c3ccc(Cl)cc3)c(C)c12` here?
A: Its Potency is inconclusive: 23.1 µM [cytotoxic, single point].

Q: With `COc1ccc(OCCSc2nnc(CC(=O)Nc3cccc(Cl)c3Cl)n2C)cc1` as the compound, how does the “activity change, negative = cytotoxic” value read?
A: Its value is inactive: 3.49%.

Q: Which “activity change, negative = cytotoxic” value does the source give for `COc1ccc(S(=O)(=O)N2CCCCC2c2cc(C(=O)N3CCOCC3)no2)cc1` (centres undefined) here?
A: The value was inactive: -0.0498%.

Q: With `CCOC(=O)c1cn(-c2ccccc2)nc1-c1ccncc1` as the compound, how does the activity change, negative = cytotoxic read?
A: Its activity change, negative = cytotoxic is inconclusive: 34.3%.

Q: With `O=C(CCCCCCC(=O)NCc1ccccc1)NCc1ccccc1` as the compound, how does the “activity change, negative = cytotoxic” value read?
A: Its value is inactive: -8.17%.

Q: For `Cc1cccc(-c2cc3nc(-c4ccccc4)cc(=O)n3[nH]2)c1`, which Potency is on record?
A: The Potency was inconclusive: 16.4 µM [cytotoxic, partial curve].

Q: For `O=C1NC(=S)NC(=O)C1=Cc1ccccc1C(=O)O`, which “activity change, negative = cytotoxic” value is on record?
A: Its value is inactive: -20.2%.

Q: Which “activity change, negative = cytotoxic” value does the source give for `CCCOc1cccc(C(=O)Nc2cccc(-c3nc4ncccc4o3)c2C)c1` here?
A: Its value is inactive: -11%.

Q: For `CCCNc1nc(C)cc(-c2cc(-c3ccccc3)on2)n1`, which “activity change, negative = cytotoxic” value is on record?
A: Its value is inactive: 2.15%.

Q: Which Potency does the source give for `COc1cccc(Nc2ccc3cc(S(=O)(=O)N4CCC(C)CC4)ccc3n2)c1` here?
A: The Potency was inconclusive: 14.6 µM [cytotoxic, single point].

Q: Which Potency does the source give for `Cc1cc(C)cc(N(C(=O)C2CCCC2)C2C=CS(=O)(=O)C2)c1` (centres undefined) here?
A: The Potency was inconclusive: 29.1 µM [rising, single point].

Q: With `CN(C(=O)C1CCN(c2ncnc3c2nc2n3CCCCC2)CC1)C1CCCCC1` as the compound, how does the Potency read?
A: Its Potency is inconclusive: 18.4 µM [cytotoxic, partial curve, poor fit].

Q: For `CC(C)C[C@H]1CN(CCCC[C@H]2CNC(=O)C(=O)N2CCC2CCCCC2)C(=O)C(=O)N1CCc1ccccc1`, which Potency is on record?
A: The Potency was inconclusive: 16.4 µM [cytotoxic, single point].

Q: Which “activity change, negative = cytotoxic” value does the source give for `Cc1c(C(=O)NCc2ccccc2Cl)sc2nc3n(c(=O)c12)CCCCC3` here?
A: The value was inactive: 6.7%.

Q: For `CC1CCN(S(=O)(=O)c2cccc(C(=O)Nc3nncs3)c2)CC1`, which “activity change, negative = cytotoxic” value is on record?
A: Its value is inactive: 4.13%.

Q: With `COc1cc(OC)c(-c2nc3cnccc3n2C)cc1OC` as the compound, how does the “activity change, negative = cytotoxic” value read?
A: Its value is inactive: -1.38%.

Q: Which Potency does the source give for `O=C(O)c1ccc2nc3c(nc2c1)-c1ccccc1C3=O` here?
A: The Potency was inconclusive: 13 µM [cytotoxic, single point].

Q: Which Potency does the source give for `Cc1cc(C)nc(SC2CC(=O)N(c3ccc(C)c(C)c3)C2=O)n1` (centres undefined) here?
A: Its Potency is inconclusive: 29.1 µM [cytotoxic, single point].

Q: With `Cc1cc(/C=C(\C#N)c2nc3ccccc3[nH]2)c(C)n1C` as the compound, how does the Potency read?
A: Its Potency is inconclusive: 1.84 µM [rising, full curve].

Q: For `CCOc1ccc(-n2c(/C=C/c3cccc(F)c3)nc3cc(OC)c(OC)cc3c2=O)cc1`, which Potency is on record?
A: Its Potency is inconclusive: 29.1 µM [cytotoxic, partial curve, poor fit].

Q: For `COc1ccc(CCNC(=O)c2nnn(CC(=O)Nc3ccccc3)c2N)cc1OC`, which Potency is on record?
A: The Potency was inconclusive: 10.3 µM [rising, partial curve].

Q: For `BrC(=C\c1ccccc1)/C=N/Nc1nc2ccccc2[nH]1`, which “activity change, negative = cytotoxic” value is on record?
A: The value was inactive: -10.6%.

Q: For `COc1ccc(CCN2C(=O)c3ccccc3C2c2nnnn2Cc2ccccc2)cc1OC` (centres undefined), which “activity change, negative = cytotoxic” value is on record?
A: The value was inactive: 27.1%.

Q: With `CC(=O)Nc1cccc(-c2cnc(NC(C)=O)cn2)c1` as the compound, how does the Potency read?
A: Its Potency is active: 18.4 µM.

Q: With `CCCCCOC(=O)c1[nH]c2c(c1C)C(=O)C(C(=O)OC)C(C)C2` (centres undefined) as the compound, how does the Potency read?
A: Its Potency is inconclusive: 29.1 µM [cytotoxic, single point].

Q: With `COc1ccc(-c2cn[nH]c2-c2ccc(OCc3ccccc3)cc2O)cc1OC` as the compound, how does the Potency read?
A: The Potency was inconclusive: 29.1 µM [cytotoxic, single point].

Q: For `CCCCC[C@@H](C)N1C[C@H](COCc2ccccc2)Oc2cc(N3CC[C@@H](N(C)C)C3)ccc2S1(=O)=O`, which Potency is on record?
A: The Potency was inconclusive: 29.1 µM [cytotoxic, single point].

Q: Which Potency does the source give for `O=C(CSc1nc2ccc(Nc3nc(N4CCOCC4)nc(N4CCOCC4)n3)cc2s1)Nc1ccccc1F` here?
A: The Potency was active: 13 µM.
